Results: patent US20130045962A1, “PEPTIDE DEFORMYLASE INHIBITORS” (priority 2007, published 2013)
Some entries share one result that the patent states for a list of compounds. For some of these results: At least one structure is not confirmed: it was looked up by name or label, or the drawing left a doubt.

Sequences of proteins named here, by UniProt entry; tags and fusion partners are left off. A change or cut given only in a name is not applied to a line headed by its entry.
UniProt P44786: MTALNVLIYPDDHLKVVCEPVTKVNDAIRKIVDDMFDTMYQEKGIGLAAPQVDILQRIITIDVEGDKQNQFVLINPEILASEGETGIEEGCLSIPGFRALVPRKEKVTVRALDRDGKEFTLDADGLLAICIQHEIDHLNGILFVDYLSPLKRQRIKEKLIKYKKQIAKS

Legend:
Assay type in all cases: biochemical
[1] = target: Haemophilus influenzae PDF (Haemophilus influenzae, UniProt P44786); assay: PDF IC50 assay (FDH-coupled), H. influenzae PDF; settings: read-out: IC50, inhibition of H. influenzae PDF activity
[2] = target: T1, Streptococcus pneumoniae PDF (Streptococcus pneumoniae serotype 4, UniProt Q9F2F0); assay: PDF IC50 assay (FDH-coupled), S. pneumoniae PDF; settings: read-out: IC50, inhibition of S. pneumoniae PDF activity
T1 sequence (Q9F2F0 1-203): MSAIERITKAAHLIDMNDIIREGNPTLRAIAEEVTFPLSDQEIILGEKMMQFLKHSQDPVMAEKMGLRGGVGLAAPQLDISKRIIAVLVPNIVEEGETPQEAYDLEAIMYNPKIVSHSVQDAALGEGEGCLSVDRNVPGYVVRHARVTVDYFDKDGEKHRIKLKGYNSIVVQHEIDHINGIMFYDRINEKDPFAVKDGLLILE

[3] = target: T2, Staphylococcus aureus PDF (SaPDF) (Staphylococcus aureus, UniProt P68826); assay: PDF IC50 assay (FDH-coupled), S. aureus PDF; settings: read-out: IC50, inhibition of S. aureus PDF activity
T2 sequence (P68826 1-183): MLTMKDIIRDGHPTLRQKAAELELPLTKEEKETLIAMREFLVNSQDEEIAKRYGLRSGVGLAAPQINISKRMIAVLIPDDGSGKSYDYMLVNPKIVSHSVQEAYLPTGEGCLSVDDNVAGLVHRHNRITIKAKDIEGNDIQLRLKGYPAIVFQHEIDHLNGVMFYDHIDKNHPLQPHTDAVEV

How did the IC50 [1] turn out when `O=CN(O)C[C@@H](CC1CCCC1)C(=O)NNc1nc(Cl)nc(N2CCN3CCCCC3C2)c1F` (single isomer, unassigned) [Example 124] was run?
Its IC50 is at most 0.1 µM.

What about the IC50 [2] of the same compound?
The IC50 was at most 0.1 µM.

What about the IC50 [3] of the same compound?
Its IC50 is at most 0.1 µM.

For `O=CN(O)C[C@@H](CC1CCCC1)C(=O)NNc1nc(Cl)nc(N2CCC[C@H]2CN2CCCCC2)c1F` [Example 264, [(2R)-3-(2-{2-Chloro-5-fluoro-6-[(2S)-2-(1-piperidinylmethyl)-1-pyrrolidinyl]-4-pyrimidinyl}hydrazino)-2-(cyclopentylmethyl)-3-oxopropyl]hydroxyformamide], which IC50 [1] is on record?
The IC50 was at most 0.1 µM.

Which IC50 [1] does the source give for `CN(C)C[C@@H]1CCCCN1c1nc(Cl)nc(NNC(=O)[C@H](CC2CCCC2)CN(O)C=O)c1F` [Example 267, [(2R)-3-[2-(2-Chloro-6-{(2S)-2-[(dimethylamino)methyl]-1-piperidinyl}-5-fluoro-4-pyrimidinyl)hydrazino]-2-(cyclopentylmethyl)-3-oxopropyl]hydroxyformamide] here?
Its IC50 is at most 0.1 µM.

How did the IC50 [1] turn out when `O=CN(O)C[C@@H](CC1CCCC1)C(=O)NNc1nc(Cl)nc(N2CCC[C@H]2c2cccnc2)c1F` [Example 268, [(2R)-3-(2-{2-Chloro-5-fluoro-6-[(2S)-2-phenyl-1-pyrrolidinyl]-4-pyrimidinyl}hydrazino)-2-(cyclopentylmethyl)-3-oxopropyl]hydroxyformamide] was run?
The IC50 was at most 0.1 µM.

For `CC(C)N(C)C[C@@H]1CCCN1c1nc(Cl)nc(NNC(=O)[C@H](CC2CCCC2)CN(O)C=O)c1F` [Example 269, [(2R)-3-{2-[2-Chloro-5-fluoro-6-((2S)-2-{[methyl(1-methylethyl)amino]methyl}-1-pyrrolidinyl)-4-pyrimidinyl]hydrazino}-2-(cyclopentylmethyl)-3-oxopropyl]hydroxyformamide], which IC50 [1] is on record?
The IC50 was at most 0.1 µM.

For `Cc1nc(NNC(=O)[C@H](CC2CCCC2)CN(O)C=O)c(F)c(N2CCC[C@H]2CN(C)C(C)C)n1` [Example 270], which IC50 [1] is on record?
Its IC50 is at most 0.1 µM.

For `CCCN(C)C[C@@H]1CCCN1c1nc(C)nc(NNC(=O)[C@H](CC2CCCC2)CN(O)C=O)c1F` [Example 271, ((2R)-2-(Cyclopentylmethyl)-3-{2-[5-fluoro-2-methyl-6-((2S)-2-{[methyl(propyl)amino]methyl}-1-pyrrolidinyl)-4-pyrimidinyl]hydrazino}-3-oxopropyl)hydroxyformamide], which IC50 [1] is on record?
The IC50 was at most 0.1 µM.

For `CCCN(C)C[C@@H]1CCCN1c1nc(Cl)nc(NNC(=O)[C@H](CC2CCCC2)CN(O)C=O)c1F` [Example 272, [(2R)-3-{2-[2-Chloro-5-fluoro-6-((2S)-2-{[methyl(propyl)amino]methyl}-1-pyrrolidinyl)-4-pyrimidinyl]hydrazino}-2-(cyclopentylmethyl)-3-oxopropyl]hydroxyformamide], which IC50 [1] is on record?
Its IC50 is at most 0.1 µM.

Which IC50 [1] does the source give for `CN1CCN(N(Cc2nccs2)c2nc(Cl)nc(NNC(=O)[C@H](CC3CCCC3)CN(O)C=O)c2F)CC1` [Example 273, [(2R)-3-(2-{2-Chloro-5-fluoro-6-[(4-methyl-1-piperazinyl)(1,3-thiazol-2-ylmethyl)amino]-4-pyrimidinyl}hydrazino)-2-(cyclopentylmethyl)-3-oxopropyl]hydroxyformamide] here?
The IC50 was at most 0.1 µM.

How did the IC50 [1] turn out when `O=CN(O)C[C@@H](CC1CCCC1)C(=O)NNc1nc(Cl)nc(N2CCC[C@H]2Cn2nnc3cncnc32)c1F` [Example 274, [(2R)-3-(2-{2-Chloro-5-fluoro-6-[(2S)-2-(3H-[1,2,3]triazolo[4,5-d]pyrimidin-3-ylmethyl)-1-pyrrolidinyl]-4-pyrimidinyl}hydrazino)-2-(cyclopentylmethyl)-3-oxopropyl]hydroxyformamide] was run?
Its IC50 is at most 0.1 µM.

`Cc1nc(NNC(=O)[C@H](CC2CCCC2)CN(O)C=O)c(F)c(N2CCN(C)C3(CC3)C2)n1` [Example 275, ((2R)-2-(Cyclopentylmethyl)-3-{2-[5-fluoro-2-methyl-6-(4-methyl-4,7-diazaspiro[2.5]oct-7-yl)-4-pyrimidinyl]hydrazino}-3-oxopropyl)hydroxyformamide] was tested. Which IC50 [1] did it give?
The IC50 was at most 0.1 µM.

How did the IC50 [1] turn out when `C[C@@H]1CN(C)CCN1c1nc(Cl)nc(NNC(=O)[C@H](CC2CCC2)CN(O)C=O)c1F` [Example 276, [(2R)-3-(2-{2-Chloro-6-[(2R)-2,4-dimethyl-1-piperazinyl]-5-fluoro-4-pyrimidinyl}hydrazino)-2-(cyclobutylmethyl)-3-oxopropyl]hydroxyformamide] was run?
Its IC50 is at most 0.1 µM.

For `O=CN(O)C[C@@H](CC1CCC1)C(=O)NNc1nc(Cl)nc(N2CCN3CCOC[C@@H]3C2)c1F` [Example 277, [(2R)-3-(2-{2-Chloro-5-fluoro-6-[(9aS)-hexahydropyrazino[2,1-c][1,4]oxazin-8(1H)-yl]-4-pyrimidinyl}hydrazino)-2-(cyclobutylmethyl)-3-oxopropyl]hydroxyformamide], which IC50 [1] is on record?
Its IC50 is at most 0.1 µM.

Which IC50 [1] does the source give for `COC(=O)N[C@H]1CCN(c2nc(Cl)nc(NNC(=O)[C@H](CC3CCCC3)CN(O)C=O)c2F)C1` [Example 278, Methyl((3S)-1-{2-chloro-6-[2-((2R)-3-cyclopentyl-2-{[formyl(hydroxy)amino]methyl}propanoyl)hydrazino]-5-fluoro-4-pyrimidinyl}-3-pyrrolidinyl)carbamate] here?
The IC50 was at most 0.1 µM.

With `O=CN(O)C[C@@H](CC1CCCC1)C(=O)NNc1nc(Cl)nc(N2CCC[C@H]2Cn2nnc3cccnc32)c1F` [Example 279, [(2R)-3-(2-{2-Chloro-5-fluoro-6-[(2S)-2-(3H-[1,2,3]triazolo[4,5-b]pyridin-3-ylmethyl)-1-pyrrolidinyl]-4-pyrimidinyl}hydrazino)-2-(cyclopentylmethyl)-3-oxopropyl]hydroxyformamide] as the compound, how does the IC50 [1] read?
The IC50 was at most 0.1 µM.

With `O=CN(O)C[C@@H](CC1CCCC1)C(=O)NNc1nc(Cl)nc(NCCc2ccco2)c1F` [Example 280, [(2R)-3-[2-(2-Chloro-5-fluoro-6-{[2-(2-furanyl)ethyl]amino}-4-pyrimidinyl)hydrazino]-2-(cyclopentylmethyl)-3-oxopropyl]hydroxyformamide] as the compound, how does the IC50 [1] read?
The IC50 was at most 0.1 µM.

`O=CN(O)C[C@@H](CC1CCCC1)C(=O)NNc1nc(Cl)nc(NCCc2ccoc2)c1F` [Example 281, [(2R)-3-[2-(2-Chloro-5-fluoro-6-{[2-(3-furanyl)ethyl]amino}-4-pyrimidinyl)hydrazino]-2-(cyclopentylmethyl)-3-oxopropyl]hydroxyformamide] was tested. Which IC50 [1] did it give?
The IC50 was at most 0.1 µM.
